Some of the results follow. The calls rarely recur for the same compound in another form.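 Kinases, fused to nanoluciferase, were expressed in K562 cells; luminescence was measured every 4 h from 2 to 18 h as percent of control (DMSO = 100%, positive control = 0%). A time point is decreased if signal falls significantly (2 sigma). Hits were called by the authors by a rule that is not shown; the count of time points alone does not decide it.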
Assays:
Assay in all cases: kinase-Nluc reporter destabilization hit call (1 = scored as downregulated) (binary); higher = compound decreases kinase abundance
Conditions in all cases: K562; 2-18 h
[1] = biological target: ABL1 (UniProt P00519)
[2] = biological target: AKT1 (UniProt P31749)
[3] = biological target: ALK (UniProt Q9UM73)
[4] = biological target: ARAF (UniProt P10398)
[5] = biological target: AURKA (UniProt O14965)
[6] = biological target: AURKB (UniProt Q96GD4)
[7] = biological target: AURKC (UniProt Q9UQB9)
[8] = biological target: BLK (UniProt P51451)
[9] = biological target: BMX (UniProt P51813)
[10] = biological target: BRAF (UniProt P15056)
[11] = test system: BRAF_V600E
[12] = biological target: BTK (UniProt Q06187)
[13] = biological target: CAMK2A (UniProt Q9UQM7)
[14] = biological target: CAMK2G (UniProt Q13555)
[15] = biological target: CDK10 (UniProt Q15131)
[16] = biological target: CDK2 (UniProt P24941)
[17] = biological target: CDK3 (UniProt Q00526)
[18] = biological target: CDK4 (UniProt P11802)
[19] = biological target: CDK5 (UniProt Q00535)
[20] = biological target: CDK6 (UniProt Q00534)

Amino acid sequences for entries named in this document (tags omitted). A change or cut given only in a name is not applied to a line headed by its entry.
UniProt P00519, whole entry: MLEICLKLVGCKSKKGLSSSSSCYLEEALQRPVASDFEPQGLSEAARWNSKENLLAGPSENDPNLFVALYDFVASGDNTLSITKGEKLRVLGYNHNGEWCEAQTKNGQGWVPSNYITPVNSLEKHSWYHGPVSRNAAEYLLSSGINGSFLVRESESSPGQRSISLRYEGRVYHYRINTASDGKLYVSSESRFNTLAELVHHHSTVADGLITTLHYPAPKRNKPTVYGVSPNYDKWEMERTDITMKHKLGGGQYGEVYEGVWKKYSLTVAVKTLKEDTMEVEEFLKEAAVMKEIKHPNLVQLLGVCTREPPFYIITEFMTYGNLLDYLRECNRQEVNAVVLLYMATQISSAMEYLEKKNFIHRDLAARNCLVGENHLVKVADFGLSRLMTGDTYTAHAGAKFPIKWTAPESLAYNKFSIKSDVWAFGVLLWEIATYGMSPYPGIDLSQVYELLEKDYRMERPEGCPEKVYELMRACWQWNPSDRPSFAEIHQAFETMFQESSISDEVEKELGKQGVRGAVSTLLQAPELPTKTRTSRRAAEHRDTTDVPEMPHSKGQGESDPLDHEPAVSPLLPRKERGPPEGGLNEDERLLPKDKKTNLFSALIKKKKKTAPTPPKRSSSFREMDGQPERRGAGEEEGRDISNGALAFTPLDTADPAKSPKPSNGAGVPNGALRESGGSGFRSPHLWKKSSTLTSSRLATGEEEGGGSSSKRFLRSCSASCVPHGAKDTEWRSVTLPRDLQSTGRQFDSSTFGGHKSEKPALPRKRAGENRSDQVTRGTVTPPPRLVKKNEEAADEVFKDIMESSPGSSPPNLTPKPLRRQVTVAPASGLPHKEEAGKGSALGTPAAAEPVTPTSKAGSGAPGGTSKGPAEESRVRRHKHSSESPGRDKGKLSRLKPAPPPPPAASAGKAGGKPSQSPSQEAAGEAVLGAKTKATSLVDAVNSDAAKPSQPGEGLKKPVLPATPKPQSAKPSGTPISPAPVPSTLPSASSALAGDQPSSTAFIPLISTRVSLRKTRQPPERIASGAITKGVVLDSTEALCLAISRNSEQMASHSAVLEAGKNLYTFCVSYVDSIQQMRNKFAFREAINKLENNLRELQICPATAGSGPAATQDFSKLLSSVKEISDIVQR
UniProt P31749: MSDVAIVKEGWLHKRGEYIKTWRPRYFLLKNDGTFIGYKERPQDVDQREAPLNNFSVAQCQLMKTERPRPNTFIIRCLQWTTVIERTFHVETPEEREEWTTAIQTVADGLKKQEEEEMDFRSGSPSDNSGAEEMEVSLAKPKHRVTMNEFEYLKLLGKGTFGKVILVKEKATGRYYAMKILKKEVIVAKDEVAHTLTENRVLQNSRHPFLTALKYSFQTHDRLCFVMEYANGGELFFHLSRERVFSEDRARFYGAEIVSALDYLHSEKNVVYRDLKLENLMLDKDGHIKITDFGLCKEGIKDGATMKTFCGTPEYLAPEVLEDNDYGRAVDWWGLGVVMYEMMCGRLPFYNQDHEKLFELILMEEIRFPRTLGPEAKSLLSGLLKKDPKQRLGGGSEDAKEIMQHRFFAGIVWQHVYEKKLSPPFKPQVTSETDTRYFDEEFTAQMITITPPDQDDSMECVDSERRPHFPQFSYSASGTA
UniProt P10398: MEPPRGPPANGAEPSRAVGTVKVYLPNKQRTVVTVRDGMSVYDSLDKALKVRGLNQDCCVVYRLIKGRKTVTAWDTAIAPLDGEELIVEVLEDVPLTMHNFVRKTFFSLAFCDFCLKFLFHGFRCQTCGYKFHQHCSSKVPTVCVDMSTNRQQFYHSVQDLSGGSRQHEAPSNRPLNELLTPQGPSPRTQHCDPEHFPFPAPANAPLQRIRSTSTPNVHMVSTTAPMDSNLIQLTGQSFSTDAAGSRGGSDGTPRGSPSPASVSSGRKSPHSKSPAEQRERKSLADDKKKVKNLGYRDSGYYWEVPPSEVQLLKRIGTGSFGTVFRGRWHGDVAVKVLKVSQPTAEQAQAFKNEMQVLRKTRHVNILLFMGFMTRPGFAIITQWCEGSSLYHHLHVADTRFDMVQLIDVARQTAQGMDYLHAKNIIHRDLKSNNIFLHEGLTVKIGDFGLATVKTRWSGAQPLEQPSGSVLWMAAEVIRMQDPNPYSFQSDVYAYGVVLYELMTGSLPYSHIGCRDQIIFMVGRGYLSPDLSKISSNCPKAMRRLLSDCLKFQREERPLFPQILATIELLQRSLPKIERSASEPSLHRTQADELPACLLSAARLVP
UniProt Q96GD4, whole entry: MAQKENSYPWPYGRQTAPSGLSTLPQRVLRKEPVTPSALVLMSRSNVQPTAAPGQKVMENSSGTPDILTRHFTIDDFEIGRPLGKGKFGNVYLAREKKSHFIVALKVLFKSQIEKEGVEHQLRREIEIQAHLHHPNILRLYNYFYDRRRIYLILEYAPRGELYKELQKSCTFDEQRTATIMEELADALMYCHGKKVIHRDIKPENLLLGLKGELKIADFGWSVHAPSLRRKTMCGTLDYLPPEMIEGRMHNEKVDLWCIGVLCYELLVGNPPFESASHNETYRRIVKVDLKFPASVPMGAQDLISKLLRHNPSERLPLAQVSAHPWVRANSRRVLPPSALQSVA
UniProt Q9UQB9: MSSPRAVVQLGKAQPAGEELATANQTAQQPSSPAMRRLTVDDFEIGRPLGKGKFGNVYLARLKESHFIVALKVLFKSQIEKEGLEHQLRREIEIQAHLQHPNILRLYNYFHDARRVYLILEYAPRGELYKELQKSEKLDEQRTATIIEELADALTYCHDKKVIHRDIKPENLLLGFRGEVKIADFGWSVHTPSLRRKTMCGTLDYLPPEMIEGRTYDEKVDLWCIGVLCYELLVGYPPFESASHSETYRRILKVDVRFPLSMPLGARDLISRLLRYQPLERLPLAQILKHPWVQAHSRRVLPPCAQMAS
UniProt P51451: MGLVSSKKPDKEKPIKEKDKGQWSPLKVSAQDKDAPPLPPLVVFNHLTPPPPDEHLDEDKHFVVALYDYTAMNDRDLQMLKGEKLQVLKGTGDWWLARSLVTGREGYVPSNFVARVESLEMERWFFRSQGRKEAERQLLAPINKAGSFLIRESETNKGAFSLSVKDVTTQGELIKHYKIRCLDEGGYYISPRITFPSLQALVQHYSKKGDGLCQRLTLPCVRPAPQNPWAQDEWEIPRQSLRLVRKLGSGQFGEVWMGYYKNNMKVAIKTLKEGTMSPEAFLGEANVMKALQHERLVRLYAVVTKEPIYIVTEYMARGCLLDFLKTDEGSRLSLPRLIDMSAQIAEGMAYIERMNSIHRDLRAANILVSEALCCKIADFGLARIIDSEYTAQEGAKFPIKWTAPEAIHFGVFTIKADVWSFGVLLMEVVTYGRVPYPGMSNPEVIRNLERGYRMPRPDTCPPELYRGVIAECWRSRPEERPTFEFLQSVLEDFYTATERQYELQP
UniProt P51813: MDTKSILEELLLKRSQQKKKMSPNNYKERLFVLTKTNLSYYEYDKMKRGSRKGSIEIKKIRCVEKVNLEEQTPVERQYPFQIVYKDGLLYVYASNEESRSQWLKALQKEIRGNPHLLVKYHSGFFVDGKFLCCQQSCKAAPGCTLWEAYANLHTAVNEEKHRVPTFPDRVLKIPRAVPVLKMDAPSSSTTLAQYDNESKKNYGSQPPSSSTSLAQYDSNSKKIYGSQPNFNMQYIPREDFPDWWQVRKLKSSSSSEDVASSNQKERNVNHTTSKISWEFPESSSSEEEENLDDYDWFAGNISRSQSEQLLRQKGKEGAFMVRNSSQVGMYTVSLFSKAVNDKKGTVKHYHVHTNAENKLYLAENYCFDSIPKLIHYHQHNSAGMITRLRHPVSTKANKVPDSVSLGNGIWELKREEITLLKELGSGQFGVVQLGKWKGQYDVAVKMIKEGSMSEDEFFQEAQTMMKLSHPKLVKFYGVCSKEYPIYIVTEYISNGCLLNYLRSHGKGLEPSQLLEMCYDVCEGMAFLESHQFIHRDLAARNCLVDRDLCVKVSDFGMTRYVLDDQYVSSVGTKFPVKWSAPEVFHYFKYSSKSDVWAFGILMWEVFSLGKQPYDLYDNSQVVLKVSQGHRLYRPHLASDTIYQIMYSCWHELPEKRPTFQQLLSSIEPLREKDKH
UniProt P15056, whole entry, looked up: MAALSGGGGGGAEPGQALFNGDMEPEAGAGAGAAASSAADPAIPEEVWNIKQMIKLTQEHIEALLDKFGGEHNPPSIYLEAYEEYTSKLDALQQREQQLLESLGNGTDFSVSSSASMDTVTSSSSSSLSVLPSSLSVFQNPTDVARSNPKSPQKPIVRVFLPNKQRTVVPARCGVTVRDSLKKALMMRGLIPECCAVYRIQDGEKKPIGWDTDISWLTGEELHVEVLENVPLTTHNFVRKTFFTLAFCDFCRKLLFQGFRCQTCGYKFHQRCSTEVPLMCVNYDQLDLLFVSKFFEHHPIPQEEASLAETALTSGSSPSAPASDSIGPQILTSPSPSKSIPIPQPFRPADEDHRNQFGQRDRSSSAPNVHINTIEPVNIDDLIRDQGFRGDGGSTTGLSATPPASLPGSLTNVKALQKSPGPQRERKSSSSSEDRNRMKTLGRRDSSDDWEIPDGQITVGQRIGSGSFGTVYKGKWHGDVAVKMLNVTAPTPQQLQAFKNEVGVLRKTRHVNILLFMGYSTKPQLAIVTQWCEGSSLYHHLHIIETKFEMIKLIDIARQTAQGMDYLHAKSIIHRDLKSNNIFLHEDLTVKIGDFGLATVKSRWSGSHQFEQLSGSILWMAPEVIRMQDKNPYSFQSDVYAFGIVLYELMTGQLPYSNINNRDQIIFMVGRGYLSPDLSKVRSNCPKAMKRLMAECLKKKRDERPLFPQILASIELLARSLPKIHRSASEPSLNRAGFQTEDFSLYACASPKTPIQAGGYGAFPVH
UniProt Q9UQM7, whole entry: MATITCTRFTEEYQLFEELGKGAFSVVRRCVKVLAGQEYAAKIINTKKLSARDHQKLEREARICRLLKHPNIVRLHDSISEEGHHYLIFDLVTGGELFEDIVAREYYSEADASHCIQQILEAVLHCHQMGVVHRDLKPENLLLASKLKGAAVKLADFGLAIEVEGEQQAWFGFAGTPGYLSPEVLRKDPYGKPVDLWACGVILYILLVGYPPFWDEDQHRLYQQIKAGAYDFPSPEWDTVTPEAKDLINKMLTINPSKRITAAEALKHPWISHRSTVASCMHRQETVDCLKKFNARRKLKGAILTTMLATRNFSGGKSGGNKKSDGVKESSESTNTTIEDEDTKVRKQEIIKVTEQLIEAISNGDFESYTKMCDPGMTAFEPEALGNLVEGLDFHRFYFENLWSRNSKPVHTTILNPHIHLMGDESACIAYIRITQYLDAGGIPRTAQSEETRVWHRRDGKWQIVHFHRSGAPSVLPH
UniProt Q15131: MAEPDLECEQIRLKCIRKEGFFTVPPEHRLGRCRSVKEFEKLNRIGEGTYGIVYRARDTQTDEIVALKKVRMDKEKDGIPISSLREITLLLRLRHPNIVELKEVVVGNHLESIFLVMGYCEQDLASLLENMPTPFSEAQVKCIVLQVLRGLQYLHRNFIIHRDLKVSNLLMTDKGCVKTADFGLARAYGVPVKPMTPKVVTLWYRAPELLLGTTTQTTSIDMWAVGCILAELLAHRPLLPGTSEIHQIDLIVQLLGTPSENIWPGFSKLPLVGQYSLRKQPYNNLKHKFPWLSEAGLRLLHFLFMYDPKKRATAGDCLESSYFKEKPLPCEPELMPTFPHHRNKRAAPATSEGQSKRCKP
UniProt P11802: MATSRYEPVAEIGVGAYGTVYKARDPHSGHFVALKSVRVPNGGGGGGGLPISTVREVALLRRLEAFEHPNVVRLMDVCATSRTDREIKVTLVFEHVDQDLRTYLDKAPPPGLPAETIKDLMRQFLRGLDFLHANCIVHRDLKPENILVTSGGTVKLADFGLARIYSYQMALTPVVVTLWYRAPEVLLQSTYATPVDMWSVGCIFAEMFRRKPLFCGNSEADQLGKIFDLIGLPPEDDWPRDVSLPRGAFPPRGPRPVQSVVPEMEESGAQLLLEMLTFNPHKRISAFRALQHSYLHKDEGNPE
UniProt Q00535, whole entry, looked up: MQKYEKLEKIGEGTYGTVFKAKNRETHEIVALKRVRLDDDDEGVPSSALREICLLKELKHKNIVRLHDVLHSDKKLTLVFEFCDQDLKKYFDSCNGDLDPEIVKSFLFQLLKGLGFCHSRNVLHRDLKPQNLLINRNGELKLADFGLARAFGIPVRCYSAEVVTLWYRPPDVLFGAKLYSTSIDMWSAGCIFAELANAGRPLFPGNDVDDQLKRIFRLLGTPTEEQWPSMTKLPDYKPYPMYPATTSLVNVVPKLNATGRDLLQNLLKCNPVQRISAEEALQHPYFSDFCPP
UniProt Q00534, whole entry: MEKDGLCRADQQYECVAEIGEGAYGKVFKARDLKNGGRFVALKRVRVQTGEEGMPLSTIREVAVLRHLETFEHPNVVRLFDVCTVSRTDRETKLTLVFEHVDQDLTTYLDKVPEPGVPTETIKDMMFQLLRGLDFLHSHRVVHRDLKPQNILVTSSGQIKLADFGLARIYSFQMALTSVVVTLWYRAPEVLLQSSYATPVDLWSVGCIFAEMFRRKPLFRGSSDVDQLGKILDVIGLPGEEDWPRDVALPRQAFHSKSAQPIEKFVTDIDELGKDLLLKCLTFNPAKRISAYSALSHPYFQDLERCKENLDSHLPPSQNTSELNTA

Measured: kinase-Nluc reporter destabilization hit call

CCC(C)(C)C(=O)N(O)Cc1ccccc1 (10 µM)
inactive: [1] 0 | [2] 0 | [3] 0 | [4] 0 | [5] 0 | [6] 0 | [7] 0 | [8] 0 | [9] 0 | [10] 0 | [11] 0 | [12] 0 | [13] 0 | [14] 0 | [15] 0 | [16] 0 | [17] 0 | [18] 0 | [19] 0 | [20] 0

CC(C)(C)Cn1c(N)nc2ccc(-c3[nH]c(C(C)(C)C)nc3-c3ccc(F)cc3)nc21 [Ralimetinib dimesylate] (2.5 µM)
inactive: [1] 0 | [2] 0 | [3] 0 | [4] 0 | [5] 0 | [6] 0 | [7] 0 | [8] 0 | [9] 0 | [10] 0 | [11] 0 | [12] 0 | [13] 0 | [14] 0 | [15] 0 | [16] 0 | [17] 0 | [18] 0 | [19] 0 | [20] 0

Nc1[nH]c(=O)nc2c1ncn2[C@@H]1O[C@H](CO)[C@@H](O)[C@H]1O [Crotonoside] (10 µM)
inactive: [1] 0 | [2] 0 | [3] 0 | [4] 0 | [5] 0 | [6] 0 | [7] 0 | [8] 0 | [9] 0 | [10] 0 | [11] 0 | [12] 0 | [13] 0 | [14] 0 | [15] 0 | [16] 0 | [17] 0 | [18] 0 | [19] 0 | [20] 0

COc1nc(-c2ccnc(NC(=O)C3CC3)c2)sc1C(N)=O [GSK-3β inhibitor 2] (10 µM)
inactive: [1] 0 | [2] 0 | [3] 0 | [4] 0 | [5] 0 | [6] 0 | [7] 0 | [8] 0 | [9] 0 | [10] 0 | [11] 0 | [12] 0 | [13] 0 | [14] 0 | [15] 0 | [16] 0 | [17] 0 | [18] 0 | [19] 0 | [20] 0

C=CS(=O)(=O)c1ccc(Nc2nc(OCC3CCCCC3)c3[nH]cnc3n2)cc1 (2.5 µM)
inactive: [1] 0 | [2] 0 | [3] 0 | [4] 0 | [5] 0 | [6] 0 | [7] 0 | [8] 0 | [9] 0 | [10] 0 | [11] 0 | [12] 0 | [13] 0 | [14] 0 | [15] 0 | [16] 0 | [17] 0 | [18] 0 | [19] 0 | [20] 0

COc1ncc(Nc2ncc([C@@H](C)N3CCN(S(C)(=O)=O)CC3)cc2-c2nc(C)nc(N)n2)cc1F (10 µM)
inactive: [1] 0 | [2] 0 | [3] 0 | [4] 0 | [5] 0 | [6] 0 | [7] 0 | [8] 0 | [9] 0 | [10] 0 | [11] 0 | [12] 0 | [13] 0 | [14] 0 | [15] 0 | [16] 0 | [17] 0 | [18] 0 | [19] 0 | [20] 0

C[C@H]1[C@H](OC(=O)CCC(=O)O)O[C@@H]2O[C@@]3(C)CC[C@H]4[C@H](C)CC[C@@H]1[C@@]24OO3 [Artesunate] (2.5 µM)
inactive: [1] 0 | [2] 0 | [3] 0 | [4] 0 | [5] 0 | [6] 0 | [7] 0 | [8] 0 | [9] 0 | [10] 0 | [11] 0 | [12] 0 | [13] 0 | [14] 0 | [15] 0 | [16] 0 | [17] 0 | [18] 0 | [19] 0 | [20] 0

Oc1ccccc1C(=S)N1CCCC1 (10 µM)
inactive: [1] 0 | [2] 0 | [3] 0 | [4] 0 | [5] 0 | [6] 0 | [7] 0 | [8] 0 | [9] 0 | [10] 0 | [11] 0 | [12] 0 | [13] 0 | [14] 0 | [15] 0 | [16] 0 | [17] 0 | [18] 0 | [19] 0 | [20] 0

CC[C@H](C)[C@H](NC(=O)[C@H](CCC(=O)O)NC(=O)[C@H](CCCN=C(N)N)NC(=O)[C@H](CCCN=C(N)N)NC(=O)[C@@H](N)CCCCN)C(=O)N[C@@H](CC(C)C)C(=O)N[C@@H](CO)C(=O)N[C@@H](CCCN=C(N)N)C(=O)N[C@@H](CCCN=C(N)N)C(=O)N1CCC[C@H]1C(=O)N[C@@H](CO)C(=O)N[C@@H](Cc1ccc(O)cc1)C(=O)N[C@@H](CCCN=C(N)N)C(=O)O [CREBtide] (10 µM)
inactive: [1] 0 | [2] 0 | [3] 0 | [4] 0 | [5] 0 | [6] 0 | [7] 0 | [8] 0 | [9] 0 | [10] 0 | [11] 0 | [12] 0 | [13] 0 | [14] 0 | [15] 0 | [16] 0 | [17] 0 | [18] 0 | [19] 0 | [20] 0

Cc1cnc(Nc2ccc(N3CCN(C)CC3)cc2)nc1Nc1cccc(S(=O)(=O)NC(C)(C)C)c1 (2.5 µM)
inactive: [1] 0 | [2] 0 | [3] 0 | [4] 0 | [5] 0 | [6] 0 | [7] 0 | [8] 0 | [9] 0 | [10] 0 | [11] 0 | [12] 0 | [13] 0 | [14] 0 | [15] 0 | [16] 0 | [17] 0 | [18] 0 | [19] 0 | [20] 0

Cc1cccc(-c2[nH]ncc2-c2ccc3ncccc3n2)n1 (10 µM)
inactive: [1] 0 | [2] 0 | [3] 0 | [4] 0 | [5] 0 | [6] 0 | [7] 0 | [8] 0 | [9] 0 | [10] 0 | [11] 0 | [12] 0 | [13] 0 | [14] 0 | [15] 0 | [16] 0 | [17] 0 | [18] 0 | [19] 0 | [20] 0

Sorted by molar mass (smallest number first): some entries from above.
C[C@H]1[C@H](OC(=O)CCC(=O)O)O[C@@H]2O[C@@]3(C)CC[C@H]4[C@H](C)CC[C@@H]1[C@@]24OO3 [Artesunate] (2.5 µM)
inactive: [1] 0 | [2] 0 | [3] 0 | [4] 0 | [5] 0 | [6] 0 | [7] 0 | [8] 0 | [9] 0 | [10] 0 | [11] 0 | [12] 0 | [13] 0 | [14] 0 | [15] 0 | [16] 0 | [17] 0 | [18] 0 | [19] 0 | [20] 0

Cc1cnc(Nc2ccc(N3CCN(C)CC3)cc2)nc1Nc1cccc(S(=O)(=O)NC(C)(C)C)c1 (2.5 µM)
inactive: [1] 0 | [2] 0 | [3] 0 | [4] 0 | [5] 0 | [6] 0 | [7] 0 | [8] 0 | [9] 0 | [10] 0 | [11] 0 | [12] 0 | [13] 0 | [14] 0 | [15] 0 | [16] 0 | [17] 0 | [18] 0 | [19] 0 | [20] 0

CC[C@H](C)[C@H](NC(=O)[C@H](CCC(=O)O)NC(=O)[C@H](CCCN=C(N)N)NC(=O)[C@H](CCCN=C(N)N)NC(=O)[C@@H](N)CCCCN)C(=O)N[C@@H](CC(C)C)C(=O)N[C@@H](CO)C(=O)N[C@@H](CCCN=C(N)N)C(=O)N[C@@H](CCCN=C(N)N)C(=O)N1CCC[C@H]1C(=O)N[C@@H](CO)C(=O)N[C@@H](Cc1ccc(O)cc1)C(=O)N[C@@H](CCCN=C(N)N)C(=O)O [CREBtide] (10 µM)
inactive: [1] 0 | [2] 0 | [3] 0 | [4] 0 | [5] 0 | [6] 0 | [7] 0 | [8] 0 | [9] 0 | [10] 0 | [11] 0 | [12] 0 | [13] 0 | [14] 0 | [15] 0 | [16] 0 | [17] 0 | [18] 0 | [19] 0 | [20] 0

The list goes on.

COc1cc(N2CCC(O)CC2)ccc1Nc1cc(Nc2ccccc2S(=O)(=O)C(C)C)c2cc[nH]c2n1 (10 µM)
inactive: [1] 0 | [2] 0 | [3] 0 | [4] 0 | [5] 0 | [6] 0 | [7] 0 | [8] 0 | [9] 0 | [10] 0 | [11] 0 | [12] 0 | [13] 0 | [14] 0 | [15] 0 | [16] 0 | [17] 0 | [18] 0 | [19] 0 | [20] 0

OCCN(CCO)c1ccc(C(c2ccc(Cl)cc2)c2ccc(N(CCO)CCO)cc2)cc1 (10 µM)
inactive: [1] 0 | [2] 0 | [3] 0 | [4] 0 | [5] 0 | [6] 0 | [7] 0 | [8] 0 | [9] 0 | [10] 0 | [11] 0 | [12] 0 | [13] 0 | [14] 0 | [15] 0 | [16] 0 | [17] 0 | [18] 0 | [19] 0 | [20] 0

C=CC(=O)Nc1cccc(-n2c(=O)cc(C)c3cnc(Nc4ccc(OCCN(C)C)cc4OC)nc32)c1 (10 µM)
inactive: [1] 0 | [2] 0 | [3] 0 | [4] 0 | [5] 0 | [6] 0 | [7] 0 | [8] 0 | [9] 0 | [10] 0 | [11] 0 | [12] 0 | [13] 0 | [14] 0 | [15] 0 | [16] 0 | [17] 0 | [18] 0 | [19] 0 | [20] 0

CN(C)c1ncnc2nc[nH]c12 [6-(Dimethylamino)purine] (10 µM)
inactive: [1] 0 | [2] 0 | [3] 0 | [4] 0 | [5] 0 | [6] 0 | [7] 0 | [8] 0 | [9] 0 | [10] 0 | [11] 0 | [12] 0 | [13] 0 | [14] 0 | [15] 0 | [16] 0 | [17] 0 | [18] 0 | [19] 0 | [20] 0

COc1ccccc1/C=C1\C(=O)Nc2ccccc21 (10 µM)
inactive: [1] 0 | [2] 0 | [3] 0 | [4] 0 | [5] 0 | [6] 0 | [7] 0 | [8] 0 | [9] 0 | [10] 0 | [11] 0 | [12] 0 | [13] 0 | [14] 0 | [15] 0 | [16] 0 | [17] 0 | [18] 0 | [19] 0 | [20] 0
